Laboratory results: patent US12410237B2, “Methods for purifying proteins having a tubulin carboxypeptidase activity and peptidic based inhibitors thereof” (CENTRE NATIONAL DE LA RECHERCHE SCIENTIFIQUE, priority 2017, dated 2025)
Some entries share one result that the patent states for a list of compounds. At least one structure is not confirmed: it was looked up by name or label, or the drawing left a doubt.

Test system: native TCPase activity in brain MAPs
Assay: detyrosination assay with 3H-tyrosine labelled microtubules and isolated brain MAPs
Type: biochemical, pig
Details: protease inhibitor treatment of brain MAPs, FIG. 5
Experimental: An assay involving radioactively labelled tyrosine (^3H—Y) was used to quantitatively determine the TCPase activity. Brain tubulin was isolated and purified and radioactively labelled with *Y by recombinant TTL. To do so, recombinant bacterially expressed purified TTL (>90% purity) was put in contact with micrograms of pig brain purified tubulin. The reaction sample was incubated for one hour at 37° C. in presence of radioactively labelled ^3H—Y and ATP. Following incorporation of ^3H—Y to tubulin, a polymerization cycle was performed by adding GTP and incubating for 30 min at 37° C. Next the samples are centrifuged and the obtained pellet was washed twice with PEM buffer. The resulting radioactively labelled MTs were store at −80° C. until further testing. […] Removal of the radioactive tyrosine by the candidate detyrosinase was measured by quantification of radioactivity in both the soluble and insoluble fraction of the reaction using a liquid scintillator counter. […]
Recombinant bacterially expressed purified TTL (>90% purity) was put in contact with micrograms of pig brain purified tubulin. […] Release of radioactive tyrosine by native TCPase containing brain MAPs was measured by quantification of radioactivity in both the soluble and insoluble fraction of the reaction using a liquid scintillator counter.

O=C(O)CN(CCOCCOCCN(CC(=O)O)CC(=O)O)CC(=O)O [EGTA]
inhibition of the total TCPase activity contained in the brain MAPs: up to 50%
